“And” between values parts separate entries of the source, which are not always exact repeats. Equal values may be shown once. Where a name gives a salt, the structure may show the parent alone. The list shows a part of the results. Part of the spread comes from offsets between plates or batches.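 Smoothened with circularly permuted GFP in its cytoplasmic tail is carried by a clonal Drosophila S2 line; fluorescence appears when Hh-driven phosphorylation opens an inhibitory loop. Per-cell signal, read by flow cytometry, was scaled to Hh-stimulated untreated cells. Hits were consistent fluorescence-shifting groups of inhibitors sharing pathway targets, not single compounds.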

The first assay concerns Drosophila S2 cl14 SmoIP sensor cells. Description: normalized SmoIP GFP fluorescence (untreated unstimulated = 0%, untreated Hh-stimulated = 100%); higher = more Smo activation sensor fluorescence. The conditions noted are these: stimulation: Hh conditioned medium (+Hh); compound concentration: 15 uM; 24 h.
As for `O=C(O)c1ccc(N2C(=O)/C(=C\c3ccc(-c4ccc([N+](=O)[O-])cc4)o3)C=C2c2ccccc2)cc1` [4e1rcat], the “normalized SmoIP GFP fluorescence” value was 133%.

For `NC(=O)N1c2ccccc2CC(=O)c2ccccc21` [Oxcarbazepine], the “normalized SmoIP GFP fluorescence” value turned out to be 133%.

Regarding `CN1C2CCC1CC(OC(=O)C(O)c1ccccc1)C2` (stereo unspecified) [homatropine-bromide], the “normalized SmoIP GFP fluorescence” value is 117%.

Consider `CNCc1ccc(C)c(NC(=O)c2ccc(Nc3nc(-c4ccccc4)c4ccccc4n3)cc2)c1`, for which the “normalized SmoIP GFP fluorescence” value amounted to 170%.

Take `Cc1cccc(C)c1OCC(=O)N[C@@H](Cc1ccccc1)[C@@H](O)C[C@H](Cc1ccccc1)NC(=O)[C@H](C(C)C)N1CCCNC1=O` [Lopinavir]: the “normalized SmoIP GFP fluorescence” value worked out at 209%.

In the case of `CN1CCN(C(=O)c2cc3cc(Cl)ccc3[nH]2)CC1`, the “normalized SmoIP GFP fluorescence” value was determined as 124%.

On to `C1=C/COCc2cc(ccc2OCCN2CCCC2)Nc2nccc(n2)-c2cccc(c2)COC/1` [pacritinib-sb1518], for which the “normalized SmoIP GFP fluorescence” value is 146%.

As for `COc1ccccc1OCCNCC(O)COc1cccc2[nH]c3ccccc3c12` (stereo unspecified) [carvedilol], the “normalized SmoIP GFP fluorescence” value was 149%.

In the case of `Cc1ccc2nc(NCCN)c3ncc(C)n3c2c1`, the “normalized SmoIP GFP fluorescence” value is 136%.

As to `COC(=O)[C@]12CCC(C)(C)C[C@H]1[C@H]1C(=O)C=C3[C@@]4(C)C=C(C#N)C(=O)C(C)(C)[C@@H]4CC[C@@]3(C)[C@]1(C)CC2` [bardoxolone-methyl], the “normalized SmoIP GFP fluorescence” value worked out at 115%.

Regarding `Cc1cc(C2CCCCC2)n(O)c(=O)c1` [ciclopirox-ethanolamine], the “normalized SmoIP GFP fluorescence” value is 127%.

With `CN1CCC(=C2c3ccccc3CCc3cccnc32)CC1` [azatadine-dimaleate], the “normalized SmoIP GFP fluorescence” value stood at 134%.

`C#Cc1cccc(Nc2ncnc3cc(OC)c(OCCCCCCC(=O)NO)cc23)c1`: the “normalized SmoIP GFP fluorescence” value worked out at 232%.

As to `CC(C)CN(C[C@@H](O)[C@H](Cc1ccccc1)NC(=O)O[C@H]1CO[C@H]2OCC[C@H]21)S(=O)(=O)c1ccc(N)cc1` [Darunavir-Ethanolate(Prezista)], the “normalized SmoIP GFP fluorescence” value worked out at 116%.

`CO[C@H]1C[C@@H]2CC[C@@H](C)[C@@](O)(O2)C(=O)C(=O)N2CCCC[C@H]2C(=O)O[C@H]([C@H](C)C[C@@H]2CC[C@@H](OCCO)[C@H](OC)C2)CC(=O)[C@H](C)/C=C(\C)[C@@H](O)[C@@H](OC)C(=O)[C@H](C)C[C@H](C)/C=C/C=C/C=C/1C` [Everolimus(RAD001)]: the “normalized SmoIP GFP fluorescence” value was 83%.

For `CC1CCc2cc(F)cc3c(=O)c(C(=O)O)cn1c23` (stereo unspecified) [flumequine], the “normalized SmoIP GFP fluorescence” value came out at 113%.

As for `CC1=C(/C=C/C(C)=C/C=C/C(C)=C\C(=O)O)C(C)(C)CCC1` [Isotretinoin], the “normalized SmoIP GFP fluorescence” value is 119%.

For the compound `COc1cc2ncnc(Nc3ccc(O)c(Br)c3)c2cc1OC`, the “normalized SmoIP GFP fluorescence” value was found to be 119%.

`CN[C@H]1CC[C@@H](c2ccc(Cl)c(Cl)c2)c2ccccc21` [sertraline-hcl]: the “normalized SmoIP GFP fluorescence” value came out at 154%.

Regarding `CNCc1cc(-c2ccccc2F)n(S(=O)(=O)c2cccnc2)c1`, the “normalized SmoIP GFP fluorescence” value was 169%.

Take `COc1cc(Nc2nc3ccccc3nc2NS(=O)(=O)c2ccc(NC(=O)c3ccc(C)c(OC)c3)cc2)cc(OC)c1`: the “normalized SmoIP GFP fluorescence” value came out at 130%.

Still in this assay, the particulars now being: stimulation: mock conditioned medium (-Hh); compound concentration: 15 uM; 24 h.
With `O=C(O)c1ccc(N2C(=O)/C(=C\c3ccc(-c4ccc([N+](=O)[O-])cc4)o3)C=C2c2ccccc2)cc1` [4e1rcat], the “normalized SmoIP GFP fluorescence” value was found to be 3.72%.

Take `CC(C)N(CCCNC(=O)Nc1ccc(C(C)(C)C)cc1)C[C@H]1O[C@@H](n2ccc3c(N)ncnc32)[C@H](O)[C@@H]1O`: the “normalized SmoIP GFP fluorescence” value was 7.86% and 1.95%.

Regarding `CN(C)Cc1ccc(S(=O)(=O)n2ccc(/C=C/C(=O)NO)c2)cc1` [resminostat-ras2410], the “normalized SmoIP GFP fluorescence” value is 70.1%.

Regarding `Cc1cccc(C)c1OCC(=O)N[C@@H](Cc1ccccc1)[C@@H](O)C[C@H](Cc1ccccc1)NC(=O)[C@H](C(C)C)N1CCCNC1=O` [Lopinavir], the “normalized SmoIP GFP fluorescence” value turned out to be 33.6%.

Take `CN1CCN(C(=O)c2cc3cc(Cl)ccc3[nH]2)CC1`: the “normalized SmoIP GFP fluorescence” value was 17.1%.

For the compound `C=CC(=O)Nc1cccc(Nc2nc(Nc3ccc(N4CCN(C(C)=O)CC4)cc3OC)ncc2C(F)(F)F)c1`, the “normalized SmoIP GFP fluorescence” value is 58.1%.

Regarding `C1=C/COCc2cc(ccc2OCCN2CCCC2)Nc2nccc(n2)-c2cccc(c2)COC/1` [pacritinib-sb1518], the “normalized SmoIP GFP fluorescence” value stood at 19.2%.

Take `O=C(Nc1cccnc1)N1CCC(Cc2cccc(Oc3ccc(C(F)(F)F)cn3)c2)CC1`: the “normalized SmoIP GFP fluorescence” value worked out at 94.6%.

Regarding `CCCCc1nc2cc(/C=C/C(=O)NO)ccc2n1CCN(CC)CC`, the “normalized SmoIP GFP fluorescence” value is 83.9%.

For the compound `O=C(/C=C/c1ccc(CN(CCO)CCc2c[nH]c3ccccc23)cc1)NO`, the “normalized SmoIP GFP fluorescence” value came out at 85.1%.

With `CO[C@H]1/C=C\C=C(/C)C(=O)NC2=CC(=O)C(NCCN(C)C)=C(C[C@@H](C)C[C@H](OC)[C@H](O)[C@@H](C)/C=C(\C)[C@@H]1OC(N)=O)C2=O` [17-DMAG,Hydrochloride-Salt], the “normalized SmoIP GFP fluorescence” value is 65.3%.

`COc1ccccc1OCCNCC(O)COc1cccc2[nH]c3ccccc3c12` (stereo unspecified) [carvedilol]: the “normalized SmoIP GFP fluorescence” value is 33.4%.

Turning to `Cc1ccc2nc(NCCN)c3ncc(C)n3c2c1`, the “normalized SmoIP GFP fluorescence” value is -10.6%.

Turning to `CC(/C=C/C(=O)NO)=C\[C@@H](C)C(=O)c1ccc(N(C)C)cc1` [Trichostatin-A], the “normalized SmoIP GFP fluorescence” value came out at 75.3%.

As to `COC(=O)[C@]12CCC(C)(C)C[C@H]1[C@H]1C(=O)C=C3[C@@]4(C)C=C(C#N)C(=O)C(C)(C)[C@@H]4CC[C@@]3(C)[C@]1(C)CC2` [bardoxolone-methyl], the “normalized SmoIP GFP fluorescence” value was -2.08%.

Turning to `CNC(=O)c1ccccc1Nc1nc(Nc2ccc(N3CCOCC3)cc2OC)ncc1Cl`, the “normalized SmoIP GFP fluorescence” value amounted to 40.9%.

`CC(=O)c1c(C)c2cnc(Nc3ccc(N4CCNCC4)cn3)nc2n(C2CCCC2)c1=O`: the “normalized SmoIP GFP fluorescence” value amounted to 55.8%.

With `COc1ccc(CCc2nc3cc(-c4c(C)noc4C)ccc3n2C[C@H](C)N2CCOCC2)cc1Cl`, the “normalized SmoIP GFP fluorescence” value turned out to be 73.4%.

Regarding `CC(C)[C@H](C(=O)Nc1ccc(C(=O)NO)cc1)c1ccccc1`, the “normalized SmoIP GFP fluorescence” value is 64.6%.

Regarding `CN1CCC(=C2c3ccccc3CCc3cccnc32)CC1` [azatadine-dimaleate], the “normalized SmoIP GFP fluorescence” value turned out to be 19.2%.

For the compound `O=[N+]([O-])c1ccc2c(c1)S(=O)(=O)C=C2` [stattic], the “normalized SmoIP GFP fluorescence” value came to 91.8%.

Take `C#Cc1cccc(Nc2ncnc3cc(OC)c(OCCCCCCC(=O)NO)cc23)c1`: the “normalized SmoIP GFP fluorescence” value was found to be 74.7%.

`CC(C)CN(C[C@@H](O)[C@H](Cc1ccccc1)NC(=O)O[C@H]1CO[C@H]2OCC[C@H]21)S(=O)(=O)c1ccc(N)cc1` [Darunavir-Ethanolate(Prezista)]: the “normalized SmoIP GFP fluorescence” value was found to be 3.18%.

As to `CO[C@H]1C[C@@H]2CC[C@@H](C)[C@@](O)(O2)C(=O)C(=O)N2CCCC[C@H]2C(=O)O[C@H]([C@H](C)C[C@@H]2CC[C@@H](OCCO)[C@H](OC)C2)CC(=O)[C@H](C)/C=C(\C)[C@@H](O)[C@@H](OC)C(=O)[C@H](C)C[C@H](C)/C=C/C=C/C=C/1C` [Everolimus(RAD001)], the “normalized SmoIP GFP fluorescence” value turned out to be 24.6%.

Take `CC1CCc2cc(F)cc3c(=O)c(C(=O)O)cn1c23` (stereo unspecified) [flumequine]: the “normalized SmoIP GFP fluorescence” value is -3.05%.

For `CC1=C(/C=C/C(C)=C/C=C/C(C)=C\C(=O)O)C(C)(C)CCC1` [Isotretinoin], the “normalized SmoIP GFP fluorescence” value was found to be 13.8%.

For `O=C(/C=C/c1cccc(S(=O)(=O)Nc2ccccc2)c1)NO` [Belinostat], the “normalized SmoIP GFP fluorescence” value amounted to 80.4%.

As for `O=C(Oc1cc(S(=O)(=O)c2ccccc2)ccc1[N+](=O)[O-])c1ccc(Cl)cc1`, the “normalized SmoIP GFP fluorescence” value is 81.3%.

Take `COc1cc2ncnc(Nc3ccc(O)c(Br)c3)c2cc1OC`: the “normalized SmoIP GFP fluorescence” value was -1.12%.

`Nc1ccccc1NC(=O)c1ccc(CNC(=O)OCc2cccnc2)cc1`: the “normalized SmoIP GFP fluorescence” value turned out to be 59.1%.

Consider `C=CCc1cccc(/C=N/NC(=O)CN2CCN(Cc3ccccc3)CC2)c1O`, for which the “normalized SmoIP GFP fluorescence” value stood at 78.2%.

In the case of `CN[C@H]1CC[C@@H](c2ccc(Cl)c(Cl)c2)c2ccccc21` [sertraline-hcl], the “normalized SmoIP GFP fluorescence” value was determined as 37.7%.

Take `CNCc1cc(-c2ccccc2F)n(S(=O)(=O)c2cccnc2)c1`: the “normalized SmoIP GFP fluorescence” value was 27.5%.

On to `CN(C)Cc1c(C(=O)NCCOc2ccc(C(=O)NO)cc2)oc2ccccc12`, for which the “normalized SmoIP GFP fluorescence” value worked out at 89.5%.

In the case of `COc1cc(Nc2nc3ccccc3nc2NS(=O)(=O)c2ccc(NC(=O)c3ccc(C)c(OC)c3)cc2)cc(OC)c1`, the “normalized SmoIP GFP fluorescence” value came out at 29.4%.

(Values after the supplement of paper PMC5662767.)
